{"source": "patent US11951171B2", "about": "“Polypeptide EXP and its drug delivery system as well as extracellular vesicle extraction” (TIANJIN MEDICAL UNIVERSITY, priority 2019, dated 2024)", "tested_on": "exosomes in serum", "assay": "Capture of serum exosomes with His-tagged peptide coated nickel beads", "conditions": "Western blot (FIG. 6D)", "description": "(A) Nano sight was used to detect the particle size of exosomes in serum captured by CP05 and EXP. It's shown by the results that the particle size of exosomes captured by EXP was about 50 nm, whose homogeneity was higher than that of exosomes recovered by ultra separation. […] It's shown by the results that exosomes captured by EXP has typical bi-layer structure, and the size of exosomes captured by EXP was smaller than that of exosomes recovered by ultrafiltration.(D) Western blot was used to detect the marker protein capturing exosome.\nExperimental example 6: Characterization and functional validation of exosome captured from serum by EXP. • (1) His-tagged EXP and CP05 (100 μg) were respectively mixed with […] beads in 200 μl binding solution at 4° C. for 1 h under rotation. • (2) 1 ml pre-centrifuged serum was added to His-EXP and His-CP05 coated nickel beads (centrifuged at 4400 g for 20 min, followed by 13000 g for 5 min), and then incubated at 4° C. for 30 min; • (3) The serum was discarded and the nonspecific binding was washed with the washing solution for 3 times, 10 min each time. • (4) […] was used to recover extracellular vesicles.\n6.1 Measurement of the size of captured exosomes. • (1) […] of exosomes recovered from elution were diluted into 1 ml of PBS. • (2) Nanosight was used to detect the size distribution of captured exosomes. […]", "data": [{"sequence": "CRHKMWTVKSRL (EXP)", "values": [{"measurement": "marker proteins of captured exosome", "result": "CD63, CD81 and HSC70"}]}]}
